PubChem BioAssay AID2685 (National Center for Advancing Translational Sciences (NCATS), 2010)
The whole screen tested about 320,000 compounds, of which about 2,100 (0.66%) were called active. The call rests on the fitted dose curve; in most records, active means well fitted inhibition curve with a large enough effect in the signal ratio, with a control signal flat (not every such curve was filed as active); inconclusive means small, poorly fitted or top-dose-only effect, or effect the other way, or a change in a side signal; inactive means flat fitted curve, though single readings scatter; the % refers to the signal ratio. Inconclusive means that the source gave no clear call. Potencies of inconclusive entries are doubtful fits and often do not repeat.

Test: qHTS Assay for Lipid Storage Modulators in Drosophila S3 Cells
Details: BODIPY lipid droplet fluorescence, 18-24 h, cells fed with added oleic acid; lipid storage change, negative = inhibition: at 46.1 µM (top of the series) unless noted
How it was run: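 Drosophila S3 cells loaded with oleic acid (400 uM, as added) and compounds at several concentrations; lipid droplets imaged by 488-nm laser-scanning cytometry, 500–530 nm intensity and object ratio to cell channel. Percent activity normalized to 20 uM Triacsin C.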
On the % scale 0 is the no-effect control and ±100 the full control effect; potency means the concentration at half of the fitted maximal effect.

Potency, inconclusive:
COC(=O)c1ccccc1NC(=O)Cn1c(-c2nonc2N)nc2ccccc21 1300 nM [rising, partial curve]
COc1cc(C(=O)N/N=C(\C)c2ccccn2)cc(OC)c1OC 130 nM [falling, full curve, poor fit]
O=C(NCc1ccccn1)c1cc2ccccc2oc1=O 51.7 nM [rising, full curve, poor fit]
CC(NC(=O)c1ccccc1[N+](=O)[O-])C1CC2CCC1C2 (configuration not stated) 1640 nM [activator, partial curve]
COc1ccc(C(=O)NCCS(=O)(=O)N2CCc3ccccc3C2)cc1OC 4110 nM [activator, partial curve, poor fit]
Cc1cc(C)nc(SSc2nc(C)cc(C)n2)n1 16400 nM [falling, single point]
O=C(COC(=O)c1n[nH]c(=O)c2ccccc12)NCc1ccccc1 2910 nM [falling, single point]
CCOc1ncccc1C(=O)OCC(=O)Nc1c(C)cc(C)cc1C 580 nM [activator, full curve, poor fit]
O=C(Cn1ccc(NC(=O)OCc2ccccc2)nc1=O)NCc1ccccn1 11.6 nM [falling, full curve, poor fit]
COc1ccc(/C=C2/Sc3ccc(C(=O)NCCCN4CCOCC4)cc3NC2=O)cc1OC 29100 nM [falling, single point]
COc1cc(C(=O)Oc2ccccc2)ccc1OCc1c(C)noc1C 2060 nM [falling, partial curve]
COc1ccc(OCC(=O)NNC(=O)Nc2cccc(Cl)c2)cc1 20600 nM [activator, single point]
CCOc1ccc(N2C(=O)CS/C2=C(\C(Cl)=C(Cl)Cl)[N+](=O)[O-])cc1 920 nM [falling, full curve, poor fit]
Cc1cccc(C(=O)NCc2ccco2)c1 14600 nM [activator, partial curve, poor fit]
O=C(NCc1ccccn1)c1ccc2nc(C3CCCCC3)oc2c1 29100 nM [falling, single point]
COc1ccc(/C(N)=N/OC(=O)c2ccc([N+](=O)[O-])c(C)c2)cc1OC 5.2 nM [falling, full curve, poor fit]
CCN(Cc1nc2cc(Cl)ccc2c(=O)[nH]1)C(=O)c1cc2c(s1)CCCCC2 6510 nM [falling, single point]
COc1ccc(C2Nc3ccccc3C(=O)N2c2ccc(C)cc2)cc1Cn1cc([N+](=O)[O-])cn1 (configuration not stated) 29100 nM [activator, single point]
CCOc1ccc(NC(=O)c2ccccc2NC(=O)c2cccnc2)cc1 29100 nM [falling, single point]

Lipid storage change, negative = inhibition, inconclusive:
Nc1nc2c(nc(N3CCCCC3)n2[C@@H]2O[C@H](CO)[C@@H](O)[C@H]2O)c(=O)[nH]1 59.2%
O=C(CNC(=O)c1ccc(S(=O)(=O)N2CCCC2)cc1)N/N=C/c1ccccc1 29.9%
N#Cc1c(NC(=O)CCCN2C(=O)c3ccccc3C2=O)oc(-c2ccccc2)c1-c1ccccc1 4.43%
OC(c1ccc(Cl)cc1Cl)C(Cc1cccnc1)n1cncn1 (configuration not stated) -50.3%
COc1ccccc1NC(=O)Cn1cc(C(=O)C2CC2)c2ccccc21 35.2%
C=CCNc1nc2ccccc2nc1NS(=O)(=O)c1ccc(F)cc1 -100%
O=C(Nc1ccc(F)c(Cl)c1)c1cccnc1 4.21%
COc1cccc(/C=C2/SC(=S)N(CC(=O)NNC(=O)c3ccccc3O)C2=O)c1 206%
Cc1ccc(NC(=O)c2cc(-c3ccccc3O)n[nH]2)cc1Cl -53.7%
O=C(NC1CCN(C(=O)Nc2ccc(F)cc2)CC1)c1ccc(F)cc1 71.6%
Nc1nc2n(n1)C1(CCCCC1)C1=C(CCCC1)N2 50.8%
NC(=O)c1ccc(NC(=O)COC(=O)CCC(=O)c2ccc(Cl)cc2)cc1 30.8%
Cc1cc(C)cc(C(=O)NCC(=O)OCN2C(=O)c3ccccc3C2=O)c1 110%
O=C(COc1ccc(Br)cc1Cl)NC(=S)Nc1ccccn1 -100%
Cc1ccc2c(c1)nnn2C1CCN(S(=O)(=O)c2ccc(C(=O)O)cc2)CC1 1.51%
CC1CCCC(NC(=O)CNC(=O)c2cccs2)C1C (configuration not stated) 23%
O=C1CCC(C(=O)N2CCN(c3cnccn3)CC2)CN1CCc1cccc(F)c1 (configuration not stated) -18.6%
CCOC(=O)c1ccc(NC(=O)c2ccc(NC(=O)C3CCCO3)cc2)cc1 (configuration not stated) 5.4%
CC1(C)c2[nH]c3ccccc3c2C[C@H]2C(=O)N(CCCCCO)CC(=O)N21 0.191%
Cc1ccc(-n2nnnc2-c2cccc(C)c2)cc1 22.8%
CC(Nc1c[nH]c(=O)[nH]c1=O)c1ccccc1 (configuration not stated) -45%
CCOc1ccccc1N(C)C(=O)c1cn(CC)c(=O)c2cc(OC)c(OC)cc12 36.3%
O=C(NC1CCCC1)NS(=O)(=O)c1ccccc1Cl -42.8%
CCCNC(=O)c1nc(C)n(-c2cc(Cl)ccc2Cl)n1 -22.7%
COc1cccc(-n2cc3c(=O)n(C)c(=O)n(C)c3c2)c1 15.1%
Cc1cc(-c2ccccc2)nc(SCc2ccc(C(=O)O)cc2)n1 15.2%
O=C(Nc1ccccn1)C1CCN(S(=O)(=O)c2ccccc2)CC1 -29.8%
Cc1ccn2cc(-c3ccc(S(=O)(=O)N4CCOCC4)cc3)nc2c1 5.49%

Random excerpt: 4 entries already listed
Lipid storage change, negative = inhibition, inconclusive:
O=C(Nc1ccccn1)C1CCN(S(=O)(=O)c2ccccc2)CC1 -29.8%
O=C(NC1CCN(C(=O)Nc2ccc(F)cc2)CC1)c1ccc(F)cc1 71.6%
C=CCNc1nc2ccccc2nc1NS(=O)(=O)c1ccc(F)cc1 -100%
Cc1ccc(-n2nnnc2-c2cccc(C)c2)cc1 22.8%
